In PubChem BioAssay AID2417 (National Center for Advancing Translational Sciences (NCATS), 2010):
The campaign covered roughly 140,000 compounds. About 4,300 (3.1%) were called active. Inconclusive results, whose numbers are uncertain, are shown with a selection of clear calls.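 Rule for the calls: active = readout at or below -70, meaning at least 70% loss of cells showing the perinucleolar compartment, a nuclear body marking cancer cells; inconclusive = readout between -30 and a set limit; inactive = the rest.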

assay: High Content Assay for Compounds that inhibit the Assembly of the Perinucleolar Compartment; settings: PC3M PTB-GFP, PNC prevalence imaging, 16 h; at 10 µM; stronger effect = lower value;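 note: plate controls were DMSO wells for no effect and camptothecin positive control wells for full effect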
In short: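 Compounds are pinned in duplicate onto adhered PC3M cells stably expressing GFP-tagged PTB and incubated 16 h at 37 C. Cells are then fixed, nuclei stained with Hoechst, and PNC-positive cells counted.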

Structure (SMILES)	activity change (PNC), negative = inhibition
CNC(=O)c1nn(-c2ccccc2)ccc1=O	inconclusive: -33.3%
COc1ccc(C2C(C#N)=C(N)Nc3onc(C(C)(C)C)c32)c(OC)c1 (stereo unspecified)	inconclusive: -38.8%
Cc1ccc(C(=O)c2ccccc2C(=O)OCC(=O)Nc2cccc([N+](=O)[O-])c2)cc1	inactive: 37.7%
CCOC(=O)c1nn(-c2ccc3c(c2)OCO3)cc1O	inactive: 34%
Cc1cc(C(=O)Nc2nnc(C(F)(F)F)s2)no1	inconclusive: -51.7%
O=C1CC(SCCO)C(=O)N1c1ccc(Oc2ccccc2)cc1 (stereo unspecified)	inconclusive: -56.5%
CCOC(=O)CNC=C(C(=O)OCC)C(=O)OCC	active: -95.6%
S=C(NCCc1ccccc1)Nc1ccccc1Cl	inconclusive: -35.8%
O=C(Nc1ccc(S(=O)(=O)N2CCC(C(=O)NC3CCCCC3)CC2)cc1)c1ccco1	inactive: -24.9%
CCOC(=O)C(Cc1cc(C(C)=O)ccc1OCC)C(=O)OCC	inconclusive: -35.3%
COc1ccc(C(=O)c2c[nH]c(C(=O)NCC3CCCO3)c2)cc1 (stereo unspecified)	inactive: 18.8%
Cc1ncc(S(=O)(=O)c2ccccc2)c(-c2ccc(Cl)cc2Cl)n1	inconclusive: -47.1%
NC(=O)C1(N2CCCCC2)CCN(C(=O)c2ccccc2)CC1	inactive: -21.6%
O=C(NNS(=O)(=O)c1ccccc1)c1cc2cc3ccccc3nc2s1	active: -106%
O=C(CN1CCOCC1)c1c[nH]c2ccccc12	inactive: 63.1%
Cc1ccc(C)c(NC(=O)CSc2ccc(-c3ccco3)nn2)c1	inactive: -5.04%
Cc1ccc(S(=O)(=O)NC(=O)Nc2ncc3c(n2)CC(c2ccco2)CC3=O)cc1 (stereo unspecified)	active: -97.2%
COc1ccc(NC(=O)COc2ccc(N(C)S(=O)(=O)c3ccc(C)cc3)cc2)cc1	inconclusive: -43.1%
CC(OC(=O)CCc1nc2ccccc2c(=O)[nH]1)C(=O)c1ccc(C(C)(C)C)cc1 (stereo unspecified)	inconclusive: -36.7%
C=C(C)CN(CC)C(=O)CSc1nc2ncc(Cl)cc2[nH]1	inactive: -28.1%
CC1=C(C(=O)OC(C)C)C(c2ccc(N(C)C)cc2)C2=C(CC(C)(C)CC2=O)N1 (stereo unspecified)	inactive: -8.37%
CN1CCC(Oc2ccccc2Sc2ccccc2)CC1	inconclusive: -64.3%
Cc1ccc(S(=O)(=O)Oc2ccc(/C=C3/N=C(c4ccccc4)OC3=O)cc2)cc1	inactive: 114%

Structure (SMILES)	activity change (PNC), negative = inhibition
Cc1ccc(NC(=S)NC(C)CCc2ccccc2)cc1C (stereo unspecified)	inactive: 16.7%
Cc1ccc(S(=O)(=O)Nc2ccc3c(c2)c2c(n3S(=O)(=O)c3ccc(C)cc3)CCCC2=O)cc1	inconclusive: -46.5%
Cc1ccc(Nc2nc(N)nc(CSc3nnc(-c4ccncc4)o3)n2)cc1	inactive: 25.1%
COc1cc(C(=S)N2CCC(C(N)=O)CC2)ccc1O	inactive: -4%
Clc1cccc2sc(N3CCN(c4ccccc4)CC3)nc12	inactive: -2.26%
CC1CCCCN1C(=O)CSc1nc2ccccc2n1CC(=O)N1CCc2ccccc21 (stereo unspecified)	inconclusive: -65.5%
Cc1c(Cl)c(=O)oc2cc(OCC(=O)NCc3cccs3)ccc12	active: -108%
CCOC(=O)N1CCN(C(=O)c2cc(-n3cnnc3)ccc2Cl)CC1	inconclusive: -71.2%
CCOC(=O)CN1CC23C=CC(O2)C(C(=O)NCc2ccccc2OC)C3C1=O (stereo unspecified)	inconclusive: -31.8%
Cc1cccc(CSc2nc3c(c(-c4cccs4)c2C#N)CN(C)CC3)c1	inactive: -25.3%
O=C(Nc1cccc(N=Cc2cc(Cl)cc(Br)c2O)c1)c1ccco1	inconclusive: -39.9%
CCCCCOC(=O)C(C)c1c(C)[nH]c(=S)[nH]c1=O (stereo unspecified)	inconclusive: -43.6%
O=C(N/N=C/c1cccc(OCc2ccccc2)c1)c1ccc(Br)cc1	inconclusive: -36%
CN(C)c1ccc(/C=N/N=C/c2ccccc2O)cc1	inconclusive: -67.3%
O=C(NCc1ccco1)c1c[nH]c2ccc(S(=O)(=O)N3CCOCC3)cc2c1=O	inconclusive: -70.1%
Cc1cc(N(C)Cc2ccccc2)nc(-c2ccccc2)n1	inconclusive: -49.8%
CNc1ccc(/C=C/C(=O)c2ccc(C)cc2)cc1[N+](=O)[O-]	inconclusive: -30.2%
Cc1cc(NC(=O)c2cc3ccccc3o2)cc(C)c1OCC(=O)N1CCOCC1	inactive: -22.3%
Cc1oc(-c2ccccc2F)nc1CN1CCC(C(=O)NC2CCCc3ccccc32)CC1 (stereo unspecified)	inconclusive: -49.5%
O=C(CN1C(=O)C2C3c4ccccc4C(c4ccccc43)C2C1=O)Nc1ccccc1C(=O)O (stereo unspecified)	inactive: -25.1%
CCNC(=O)C1CC(=O)N(CC)C(=Nc2cc(Cl)c(O)c(Cl)c2)S1 (stereo unspecified)	inconclusive: -52.9%
COc1ccc(NS(=O)(=O)c2cc(NC(=O)/C=C/c3cccs3)ccc2N2CCOCC2)cc1	inconclusive: -35.5%
COc1ccc(CC(=O)Nc2ccc(OC)c(NC(=O)c3ccco3)c2)cc1	inconclusive: -46%

In a second layout: results already given.

| Structure (SMILES) | activity change (PNC), negative = inhibition |
| --- | --- |
| O=C(CN1C(=O)C2C3c4ccccc4C(c4ccccc43)C2C1=O)Nc1ccccc1C(=O)O (stereo unspecified) | inactive: -25.1% |
| CCNC(=O)C1CC(=O)N(CC)C(=Nc2cc(Cl)c(O)c(Cl)c2)S1 (stereo unspecified) | inconclusive: -52.9% |
| COc1ccc(NS(=O)(=O)c2cc(NC(=O)/C=C/c3cccs3)ccc2N2CCOCC2)cc1 | inconclusive: -35.5% |

Additional records.

Structure (SMILES)	activity change (PNC), negative = inhibition
CN(C)CCNS(=O)(=O)c1ccc(Cl)cc1	active: -100%
Clc1ccc(NC2=NCCCCC2)cc1	inconclusive: -53.3%
O=C(NCc1nnc(SCc2ccccc2)n1-c1ccc(F)cc1)C12CC3CC(CC(C3)C1)C2	inconclusive: -31.7%
Cc1cccc(OCc2nnc(SCC(=O)Nc3cc(C)on3)n2C)c1	inconclusive: -33.2%
COc1ccc(CCNC(=O)CCc2ccc(S(=O)(=O)NC(C)C)cc2)cc1	inactive: 16.7%
Cc1oc2c(c1C(=O)Nc1ccc(C(=O)O)cc1)CCCC2	inactive: -26.3%
O=C1/C(=C/c2ccccc2)CCC1C1CCCC1 (stereo unspecified)	inactive: 19.7%
Cc1[nH]nc2c1C(c1cn[nH]c1-c1ccc(F)cc1)C(C#N)=C(N)O2 (stereo unspecified)	inconclusive: -40.4%
c1cc(-c2nnc3n2CCCCC3)ccn1	inactive: -18.5%
O=C(c1ccc(Cl)cc1)N1CCC(O)(CSc2ccccc2)CC1	active: -91.2%
CCn1cc(C(=O)NCC2CCCO2)c(=O)c2cc(S(=O)(=O)N(C)C)ccc21 (stereo unspecified)	inactive: 21.7%
COCc1[nH]nc2c1C(C1C=CCCC1)C(C#N)=C(N)O2 (stereo unspecified)	active: -107%
CC(=O)NC1=NN(C(C)=O)C2(CCCCC2)S1	inconclusive: -32.1%
CC(C)Cn1c2nc3ccccc3nc2c2c(=O)n(CCN3CCOCC3)cnc21	inactive: 30.6%
Cc1ccc(-c2nn(-c3ccccc3)cc2/C=C(\C#N)C(=O)NCc2ccccc2)cc1	inactive: -23%
CCn1cc(C(=O)NCc2ccc(C)o2)c2cc(OC)c(OC)cc2c1=O	inconclusive: -35.3%
CCOC(=O)c1cnc2nc(COc3ccccc3)[nH]n2c1=O	inconclusive: -48%
CCCN=C(Nc1ccc(Cl)cc1)c1cccnc1	inconclusive: -56.5%
CCCOC(=O)c1ccc(NS(=O)(=O)c2cccs2)cc1	inconclusive: -47.6%
Cc1ccc(NC(=O)c2ccc(COc3ccc4c(c3)CCC4)cc2)c(C)c1	inconclusive: -35%
O=C(NN=C1C2CC3CC(C2)CC1C3)c1ccncc1	inactive: -25.7%
CCOC(=O)CC(/C(C)=N\O)c1ccccc1 (stereo unspecified)	inactive: 8.84%
CCn1nc(C(=O)Nc2ccccc2C)c(Cl)c1Cl	inconclusive: -40.9%

Already shown: entries from further up.
Structure (SMILES)	activity change (PNC), negative = inhibition
c1cc(-c2nnc3n2CCCCC3)ccn1	inactive: -18.5%
O=C(c1ccc(Cl)cc1)N1CCC(O)(CSc2ccccc2)CC1	active: -91.2%
CCn1cc(C(=O)NCC2CCCO2)c(=O)c2cc(S(=O)(=O)N(C)C)ccc21 (stereo unspecified)	inactive: 21.7%
COCc1[nH]nc2c1C(C1C=CCCC1)C(C#N)=C(N)O2 (stereo unspecified)	active: -107%

Additional structures follow:

Structure (SMILES)	activity change (PNC), negative = inhibition
COCCN1C(=O)N[C@@H](c2ccc(Br)cc2)C(C(C)=O)=C1C	inconclusive: -39.5%
CC(=O)OCc1nc2sc3c(c2c(=O)[nH]1)CCCC3	inactive: 2.64%
C/C(=N\NC(=O)c1cccc(Cl)c1)c1cccc(NC(=O)c2ccco2)c1	inconclusive: -60.2%
Cc1cc(SCC(=O)N/N=C/c2ccc(O)cc2O)c(C)cc1Br	inconclusive: -58%
O=C(COc1cccc2ccccc12)NNC(=O)Nc1ccccc1	inconclusive: -43%
O=C(C(c1ccccc1)c1ccccc1)N1CCN(Cc2ccccn2)CC1	inconclusive: -34.8%
CC(C)(C)n1nnnc1C(c1ccc(Cl)cc1)N1CCCc2ccccc21 (stereo unspecified)	active: -88.3%
O=S(=O)(Nc1ccc(N2CCCCC2)cc1)c1ccccc1	inactive: -4.09%
CCN(CC)C(=O)C(=O)c1c(-c2ccccc2)[nH]c2ccccc12	inconclusive: -42.9%
COC(=O)c1ccc(CSc2nnc(Nc3ccc(OC)cc3)s2)o1	inconclusive: -46.5%
CCN=C1S/C(=C\c2sccc2C)C(=O)N1CC	inactive: 29.7%
CC(=O)NCCC(=O)Nc1nc(-c2cccs2)c(-c2cccs2)s1	inconclusive: -40.7%
O=C(NCc1ccccc1Cl)c1ccc(-c2ccccc2)cc1	inconclusive: -45.4%
COc1cc2c(cc1NC(=S)Nc1cccc(C)c1)oc1ccccc12	inconclusive: -45.3%
O=C(Nc1ccc2c(c1)OCCO2)N1CCN(c2ccc(F)cc2)CC1	active: -112%
COc1ccc(-c2noc(COc3ccc4ccccc4c3Br)n2)cc1OC	inconclusive: -38.4%
COCCCNc1oc(COc2ccc(Cl)cc2Cl)nc1C#N	inconclusive: -46.1%
CSC1=NSC2=NC(=O)/C(=C/c3coc4ccc(O)cc4c3=O)C(=N)N12	inconclusive: -30.8%
CC(O)c1nc2ccccc2n1C/C=C/c1ccccc1 (stereo unspecified)	inconclusive: -30.4%
Cc1cc(C(=O)NC2CCCCC2)c(C)n1-c1ccc(F)cc1	inconclusive: -38.7%
COc1ccc(NC(C)=O)cc1NC(=O)CN1CCN(S(=O)(=O)c2ccc(C(C)C)cc2)CC1	inactive: 48.4%
CCn1c(NCc2ccc(N(C)C)cc2)nc2ccccc21	inconclusive: -60.9%
